Data as given in PubChem BioAssay AID504808 (Drosophila RNAi Screening Center, 2011)
The screen tested about 21,000 reagents; below is an unselected part of those that have a named target and a result. Of all reagents, 18 (0.084%) were called active. 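Raw counts without plate normalisation, one of two replicates; the ratio scores behind the calls were not deposited.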 Not given: the amount of reagent, the time to read-out.

Screen: 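Fly genes required to hold E2F transcription in check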 (primary screen)
Cells: Drosophila S2 cells
Knock-down reagent: long dsRNA against Drosophila genes
Read-out: 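Firefly luciferase driven by E2F sites, normalised to Renilla luciferase on the same minimal promoter, measured by plate reader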
Direction: E2F firefly: higher = more E2F reporter activity; Renilla normaliser: higher = more normaliser reporter signal
Active means: 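Called active if the normalised E2F reporter went up by over 50%; the cutoff is arbitrary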

dpp (decapentaplegic) [DRSC00118]
- E2F firefly, rep 1: 1.45e5
- Renilla normaliser, rep 1: 5381
- Call: inactive

dpp (decapentaplegic) [DRSC00121]
- E2F firefly, rep 1: 1.39e5
- Renilla normaliser, rep 1: 5776
- Call: inactive

dpp (decapentaplegic) [DRSC00813]
- E2F firefly, rep 1: 1.62e5
- Renilla normaliser, rep 1: 5580
- Call: inactive

Lsm10 [DRSC06250]
- E2F firefly, rep 1: 1.45e5
- Renilla normaliser, rep 1: 5148
- Call: inactive

tsl (torso-like) [DRSC17090]
- E2F firefly, rep 1: 1.52e5
- Renilla normaliser, rep 1: 8107
- Call: inactive

CG14238 [DRSC14732]
- E2F firefly, rep 1: 1.01e5
- Renilla normaliser, rep 1: 7032
- Call: inactive

CG2076 [DRSC19832]
- E2F firefly, rep 1: 1.18e5
- Renilla normaliser, rep 1: 5562
- Call: inactive

CG13050 [DRSC09931]
- E2F firefly, rep 1: 1.58e5
- Renilla normaliser, rep 1: 7618
- Call: inactive

milt (milton) [DRSC00965]
- E2F firefly, rep 1: 1.28e5
- Renilla normaliser, rep 1: 4868
- Call: inactive

milt (milton) [DRSC00966]
- E2F firefly, rep 1: 1.09e5
- Renilla normaliser, rep 1: 5199
- Call: inactive

milt (milton) [DRSC02281]
- E2F firefly, rep 1: 94045
- Renilla normaliser, rep 1: 3969
- Call: inactive

CG32225 [DRSC09657]
- E2F firefly, rep 1: 89954
- Renilla normaliser, rep 1: 3933
- Call: inactive

Or33a (Odorant receptor 33a) [DRSC03386]
- E2F firefly, rep 1: 94748
- Renilla normaliser, rep 1: 3882
- Call: inactive

d-cup (davis-cup) [DRSC14846]
- E2F firefly, rep 1: 1.51e5
- Renilla normaliser, rep 1: 6614
- Call: inactive

DCP2 (Decapping protein 2) [DRSC10597]
- E2F firefly, rep 1: 53682
- Renilla normaliser, rep 1: 170
- Call: inactive

CG12177 [DRSC19437]
- E2F firefly, rep 1: 74714
- Renilla normaliser, rep 1: 3999
- Call: inactive

Eig71Eb (Ecdysone-induced gene 71Eb) [DRSC11149]
- E2F firefly, rep 1: 1.73e5
- Renilla normaliser, rep 1: 7276
- Call: inactive

Zasp67 (Z band alternatively spliced PDZ-motif protein 67) [DRSC10169]
- E2F firefly, rep 1: 76024
- Renilla normaliser, rep 1: 2184
- Call: inactive

TSG101 (Tumor susceptibility gene 101) [DRSC11098]
- E2F firefly, rep 1: 1.67e5
- Renilla normaliser, rep 1: 8646
- Call: inactive

CG12420 [DRSC14514]
- E2F firefly, rep 1: 1.45e5
- Renilla normaliser, rep 1: 6618
- Call: inactive

erm (earmuff) [DRSC00700]
- E2F firefly, rep 1: 80847
- Renilla normaliser, rep 1: 3516
- Call: inactive

CG16978 [DRSC02553]
- E2F firefly, rep 1: 96788
- Renilla normaliser, rep 1: 4015
- Call: inactive

CG7227 [DRSC03032]
- E2F firefly, rep 1: 88554
- Renilla normaliser, rep 1: 3246
- Call: inactive

kat80 (katanin 80) [DRSC20344]
- E2F firefly, rep 1: 2.05e5
- Renilla normaliser, rep 1: 5777
- Call: inactive

kat80 (katanin 80) [DRSC20345]
- E2F firefly, rep 1: 2.43e5
- Renilla normaliser, rep 1: 5892
- Call: inactive

CG15153 [DRSC02454]
- E2F firefly, rep 1: 1.05e5
- Renilla normaliser, rep 1: 4633
- Call: inactive

CG12842 (retired record) [DRSC06188]
- E2F firefly, rep 1: 1.49e5
- Renilla normaliser, rep 1: 4649
- Call: inactive

CstF64 (Cleavage stimulation factor 64 kD subunit) [DRSC16616]
- E2F firefly, rep 1: 1.33e5
- Renilla normaliser, rep 1: 7208
- Call: inactive

Ordered by “E2F firefly, rep 1” (ascending): some entries from above
CG14238 [DRSC14732]
- E2F firefly, rep 1: 1.01e5
- Renilla normaliser, rep 1: 7032
- Call: inactive

CG2076 [DRSC19832]
- E2F firefly, rep 1: 1.18e5
- Renilla normaliser, rep 1: 5562
- Call: inactive

Lsm10 [DRSC06250]
- E2F firefly, rep 1: 1.45e5
- Renilla normaliser, rep 1: 5148
- Call: inactive

tsl (torso-like) [DRSC17090]
- E2F firefly, rep 1: 1.52e5
- Renilla normaliser, rep 1: 8107
- Call: inactive
